From PubChem BioAssay AID2685 (National Center for Advancing Translational Sciences (NCATS), 2010)
Some of the results follow. Shown are side measurements of this screen, not its main read-out; they come without a call. Most of these compounds were active or inconclusive in the main read-out, so they are no random draw. Words in brackets tell the shape of the fitted curve; partial curves, single points and poor fits give uncertain potencies.

Test: qHTS Assay for Lipid Storage Modulators in Drosophila S3 Cells;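 as to cell number change: cells counted by Cell Tracker Red CMTPX staining in the red channel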
Conditions: BODIPY lipid droplet fluorescence, 18-24 h; for cell number change: measured here: cell count max response, cells fed with added oleic acid
Outline: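 Drosophila S3 cells got compounds at several concentrations plus oleic acid (400 uM solution). Laser-scanning cytometry with 488 nm excitation read lipid droplets at 500-530 nm and cells at 575-640 nm. Percent activity was relative to 20 uM Triacsin C.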

[1] = measured here: cell number channel AC50, cells fed with added oleic acid
[2] = measured here: lipid fluorescence (Fed channel) AC50, cells fed with added oleic acid

SMILES | cell number change [%] | AC50 [1] | AC50 [2]
CCc1ccccc1NC(=S)N1N=CCC1c1ccccc1 (stereo unspecified) | 35.7 | 0.103 µM [rising, full curve, poor fit] | 
CCOC(=O)c1nnn(-c2ccc([N+](=O)[O-])cc2)c1C | 7.43 |  | 
CCC(C(=O)N1CCN(c2ccccn2)CC1)n1nc(C)n2c(cc3occc32)c1=O (stereo unspecified) | 40.6 | 1.46 µM [rising, partial curve] | 
CC1=C(C(=O)OC(C)C)C(c2cncc(-c3ccc(F)cc3)c2)C(C#N)=C(N)O1 (stereo unspecified) | 35.1 | 13 µM [rising, single point] | 14.6 µM [rising, partial curve, poor fit]
CCn1nc(C(C)C(=O)O)c2ccccc2c1=O (stereo unspecified) | -5.12 |  | 2.31 µM [falling, partial curve]
Cc1ccc(SCc2c(C(=O)N/N=C/c3ccncc3)nnn2-c2nonc2N)cc1 | 188 |  | 0.58 µM [rising, single point]
O=C(Nc1cccnc1)c1cnn2c(C(F)F)cc(C3CC3)nc12 | -16.9 |  | 0.082 µM [rising, full curve, poor fit]
O=C(c1cccc(S(=O)(=O)NCc2ccc3c(c2)OCO3)c1)N1CCCC1 | 6.49 |  | 5.17 µM [rising, full curve, poor fit]
CN=c1scc(C)n1/N=C/c1ccc(O)cc1 | 7.54 |  | 2.06 µM [rising, partial curve]
COc1ccc(CNC(=O)CN(C(=O)c2csnn2)c2ccc3c(c2)OCCO3)cc1 | 16.9 |  | 
O=C(N/C=C/c1ccco1)NCc1ccccc1 | -2.96 | 0.0082 µM [falling, full curve, poor fit] | 
CN(CC(=O)Nc1ccc(F)c(F)c1F)C(=O)c1ccc(-n2cncn2)c([N+](=O)[O-])c1 |  |  | 6.51 µM [rising, single point]
O=C(Nc1ccccc1Cl)OCc1cncs1 | -35.4 |  | 
CC1(C)CC(=O)C=C(c2cccc(Br)c2)C1 | -32.5 | 25.9 µM [falling, single point] | 0.58 µM [falling, single point]
O=C(NCC1CCN(S(=O)(=O)c2ccccc2)CC1)Nc1ccc(F)cc1F | -23.4 |  | 20.6 µM [falling, single point]
O=C(NC1CCCCCC1)C1CC(=O)N(c2ccc(Cl)cc2)C1 (stereo unspecified) | 23.9 |  | 
O=C1NCCCC2c3c(cc(Br)c(O)c3Br)OC12N1CCOCC1 (stereo unspecified) | -13.3 |  | 
Cc1ccc(-c2nnn(CC(=O)N3CCCCC3)n2)cc1 | 4.74 |  | 23.1 µM [rising, partial curve]
CCOc1cc(N2CCOCC2)c(OCC)cc1NC(=O)CN1CCN(Cc2ccc3c(c2)OCO3)CC1 | -94.2 | 29.1 µM [falling, single point] | 2.31 µM [rising, partial curve, poor fit]
CC1=Nc2ccccc2/C1=C/c1sc(=N)n(-c2nccs2)c1O | -17.2 |  | 
CC1(C)Cc2[nH]c(=S)c(C#N)cc2CO1 | -35.2 | 25.9 µM [falling, single point] | 29.1 µM [falling, single point]

A section of the results above, for reference:
SMILES | cell number change [%] | AC50 [1] | AC50 [2]
CCn1nc(C(C)C(=O)O)c2ccccc2c1=O (stereo unspecified) | -5.12 |  | 2.31 µM [falling, partial curve]
Cc1ccc(SCc2c(C(=O)N/N=C/c3ccncc3)nnn2-c2nonc2N)cc1 | 188 |  | 0.58 µM [rising, single point]

Continuation.

SMILES | cell number change [%] | AC50 [1] | AC50 [2]
Cc1nc(N/N=C/c2ccc(O)cc2)c2cnn(-c3ccccc3)c2n1 | -41.7 | 14.6 µM [falling, partial curve] | 7.31 µM [falling, partial curve]
O=C(Cn1ncc2c(=O)oc3ccccc3c21)N1CCCN(Cc2ccccc2F)C1 | 7.4 |  | 5.8 µM [rising, partial curve, poor fit]
O=C1CN(C(=O)/C=C/c2ccc(Cl)cc2)c2ccccc2N1 | 23 |  | 0.731 µM [rising, single point]
O=C(N/N=C/c1oc(O)c2ccccc12)c1ccccc1O | 13.2 | 1.64 µM [falling, partial curve, poor fit] | 
NC(=O)C[n+]1cccc(CNC(=O)c2ccc(OC(F)F)cc2)c1 |  |  | 29.1 µM [falling, single point]
CCCCCn1c(NC(=O)c2ccco2)c(S(=O)(=O)c2ccc(C)cc2)c2nc3ccccc3nc21 | 0.468 |  | 5.8 µM [rising, single point]
O=C(Cc1ccccc1)N1CCC(c2nc(-c3ccc(F)cc3)no2)CC1 | 4.6 |  | 4.11 µM [rising, full curve, poor fit]
COc1cc2c(cc1OC)C(c1ccc(SC)cc1)CC(=O)N2 (stereo unspecified) | -17.2 |  | 29.1 µM [falling, single point]
CCn1cc(CCC(=O)NC(C)c2ccccc2)c2ccccc21 (stereo unspecified) | -12 |  | 29.1 µM [falling, single point]
Cc1ccc(NC2c3ncccc3C(=O)N2C2CCCCC2)cc1C (stereo unspecified) |  | 0.206 µM [rising, partial curve] | 
Cc1ccc(N2C(=O)N(CC(=O)Nc3ccc(C)cc3[N+](=O)[O-])C(=O)C2C)cc1 (stereo unspecified) | 22.9 |  | 
OCc1ccccc1OCCCN1CCC(Cc2ccccc2)CC1 | -14.3 |  | 6.51 µM [falling, partial curve]
COc1ccc(S(=O)(=O)N(C)c2nc3ccccc3n3c(CC(C)C)nnc23)cc1 | -36.9 | 5.8 µM [falling, full curve, poor fit] | 14.6 µM [falling, partial curve]
CN1CCc2c(sc3c2C(=O)NC(c2ccccn2)N3)C1 (stereo unspecified) | 6.58 |  | 14.6 µM [rising, single point]
NS(=O)(=O)c1ccc(N/N=C/c2ccc3c(c2)OCO3)c([N+](=O)[O-])c1 | 112 | 6.51 µM [falling, single point] | 0.58 µM [rising, single point]
COc1cccc(N2CCN(C(=O)CC(C)(C)CC3=NS(=O)(=O)c4ccccc4N3)CC2)c1 | 15.2 |  | 16.4 µM [falling, partial curve]
C=CCn1c(SCc2c(C)noc2C)nc2sc3c(c2c1=O)CCC(C)C3 (stereo unspecified) | 37 | 9.2 µM [rising, partial curve, poor fit] | 0.164 µM [falling, full curve, poor fit]
COCCn1nnnc1CN(CCc1ccc(OC)c(OC)c1)Cc1cc2ccc(C)cc2[nH]c1=O | -19.8 |  | 6.51 µM [falling, single point]
O=[N+]([O-])c1ccc(CSc2nnc(Cc3ccccc3)o2)cc1 | 16.2 |  | 14.6 µM [rising, partial curve, poor fit]
O=C(Nc1nc(-c2cccs2)cs1)c1ccco1 | 19.5 |  | 
Cc1ccc(CN(CC(=O)NC2CCCC2)C(=O)c2csnn2)cc1 | 14.1 |  | 

SMILES | cell number change [%] | AC50 [1] | AC50 [2]
Cc1cc(Br)ccc1NC(=O)CN(C)C(=O)CN1C(=O)NC(C)(C2CC2)C1=O (stereo unspecified) | 4.69 |  | 
COCCCNC(=O)c1c(NC(=O)C2COc3ccccc3O2)sc2c1CCCC2 (stereo unspecified) |  |  | 6.51 µM [falling, single point]
CCOC(=O)C1(Cc2cccc(Cl)c2)CCCN(C(=O)CCNC(C)=O)C1 (stereo unspecified) |  | 0.00411 µM [rising, full curve, poor fit] | 29.1 µM [rising, single point]
CC(C)(Cc1ccc(O)cc1)NC(=O)c1ccccc1 |  |  | 4.61 µM [rising, single point]
COc1cccc(C(=O)C2CCCN(Cc3c(C)n(C)n(-c4ccccc4)c3=O)C2)c1 (stereo unspecified) | -11.9 |  | 6.51 µM [falling, single point]
Cc1ccccc1C(=O)Nc1cc(NC(=O)c2ccccc2C)cc(C(=O)O)c1 | -8.01 |  | 6.51 µM [rising, single point]
Cc1nn(-c2ccccc2)c(Oc2ccc(F)cc2)c1/C=N/n1cnnc1 | -14.3 |  | 6.51 µM [falling, single point]
Cc1ccc(-n2ncc(Br)c(Br)c2=O)cc1 | -7.12 |  | 
COc1ccc(-c2nc(CSCC(=O)NC3CCCC3)c(C)o2)cc1OC |  | 1.3 µM [rising, partial curve, poor fit] | 
O=C(CCN1C(=O)c2ccccc2S1(=O)=O)Nc1cccc2ccccc12 | -27.4 |  | 23.1 µM [falling, single point]
CCOC(=O)CSC1=Nc2ccccc2C2=NC(CC(=O)NCc3ccc4c(c3)OCO4)C(=O)N12 (stereo unspecified) | 6.09 |  | 29.1 µM [rising, single point]
CCn1c(SCC(=O)OCC(=O)N2c3ccccc3NC(=O)C2(C)C)nnc1-c1ccco1 |  | 0.103 µM [rising, full curve, poor fit] | 
O=C(N1CCN(c2ccccc2)CC1)C1(S(=O)(=O)c2ccc(Cl)cc2)CC1 | -2.86 |  | 0.231 µM [rising, full curve, poor fit]
CC(OC(=O)CCN=C1NS(=O)(=O)c2ccccc21)C(=O)NC1CCCCC1C (stereo unspecified) | 15 |  | 
Cc1ccc(OCC(=O)NNC(=O)C(=O)N2CCCC2)c(C)c1 |  |  | 0.651 µM [rising, single point]
COCCCn1c(SCC(=O)NC2CCCC2)nnc1-c1ccccc1 | 16.7 |  | 29.1 µM [rising, single point]
C/C(N)=C(/C#N)C(=O)CSc1nc2cc(Cl)ccc2c(=O)n1-c1ccc(C)cc1 | -25.2 |  | 29.1 µM [falling, single point]
O=C(CN1C(=O)c2ccccc2C1=O)Nc1cccc2cccnc12 | 0.659 |  | 0.58 µM [rising, single point]
Clc1ccc(OCCOCCOc2cccc3cccnc23)c(Br)c1 | 28.3 |  | 14.6 µM [rising, partial curve]
CCOc1ccc(CC(=O)Nc2c3c(nn2C(C)(C)C)CS(=O)(=O)C3)cc1 |  |  | 29.1 µM [falling, single point]
